These are yes or no findings as the source states them, for the method shown. In cells and extracts the contact can be indirect. Some entries that bind do so weakly or less than the wild type. For part of these data: Where a sequence is shown, tags or fusion partners need not be part of it.

Protein sequences, listed by entry. Tags and fused reporters are not part of them.
UniProt Q92993: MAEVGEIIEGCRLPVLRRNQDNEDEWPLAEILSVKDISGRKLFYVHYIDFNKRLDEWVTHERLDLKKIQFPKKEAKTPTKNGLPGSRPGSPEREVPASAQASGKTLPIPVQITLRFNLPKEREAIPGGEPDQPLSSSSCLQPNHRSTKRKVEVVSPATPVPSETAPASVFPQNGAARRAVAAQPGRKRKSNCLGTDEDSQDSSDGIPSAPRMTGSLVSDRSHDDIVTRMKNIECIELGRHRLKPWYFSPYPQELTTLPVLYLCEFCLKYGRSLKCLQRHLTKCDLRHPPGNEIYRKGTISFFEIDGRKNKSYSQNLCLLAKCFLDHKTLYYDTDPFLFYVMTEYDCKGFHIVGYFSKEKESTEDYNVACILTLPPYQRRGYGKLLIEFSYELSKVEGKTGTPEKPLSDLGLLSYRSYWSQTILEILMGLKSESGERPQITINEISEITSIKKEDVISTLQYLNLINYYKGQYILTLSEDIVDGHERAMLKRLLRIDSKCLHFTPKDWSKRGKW

The values that follow come from publication PMC6714504.

The target in experiment [1] is T1, KDM2B, exogenous, tagged (MG-63 cells) (UniProt Q8NHM5).
T1 sequence: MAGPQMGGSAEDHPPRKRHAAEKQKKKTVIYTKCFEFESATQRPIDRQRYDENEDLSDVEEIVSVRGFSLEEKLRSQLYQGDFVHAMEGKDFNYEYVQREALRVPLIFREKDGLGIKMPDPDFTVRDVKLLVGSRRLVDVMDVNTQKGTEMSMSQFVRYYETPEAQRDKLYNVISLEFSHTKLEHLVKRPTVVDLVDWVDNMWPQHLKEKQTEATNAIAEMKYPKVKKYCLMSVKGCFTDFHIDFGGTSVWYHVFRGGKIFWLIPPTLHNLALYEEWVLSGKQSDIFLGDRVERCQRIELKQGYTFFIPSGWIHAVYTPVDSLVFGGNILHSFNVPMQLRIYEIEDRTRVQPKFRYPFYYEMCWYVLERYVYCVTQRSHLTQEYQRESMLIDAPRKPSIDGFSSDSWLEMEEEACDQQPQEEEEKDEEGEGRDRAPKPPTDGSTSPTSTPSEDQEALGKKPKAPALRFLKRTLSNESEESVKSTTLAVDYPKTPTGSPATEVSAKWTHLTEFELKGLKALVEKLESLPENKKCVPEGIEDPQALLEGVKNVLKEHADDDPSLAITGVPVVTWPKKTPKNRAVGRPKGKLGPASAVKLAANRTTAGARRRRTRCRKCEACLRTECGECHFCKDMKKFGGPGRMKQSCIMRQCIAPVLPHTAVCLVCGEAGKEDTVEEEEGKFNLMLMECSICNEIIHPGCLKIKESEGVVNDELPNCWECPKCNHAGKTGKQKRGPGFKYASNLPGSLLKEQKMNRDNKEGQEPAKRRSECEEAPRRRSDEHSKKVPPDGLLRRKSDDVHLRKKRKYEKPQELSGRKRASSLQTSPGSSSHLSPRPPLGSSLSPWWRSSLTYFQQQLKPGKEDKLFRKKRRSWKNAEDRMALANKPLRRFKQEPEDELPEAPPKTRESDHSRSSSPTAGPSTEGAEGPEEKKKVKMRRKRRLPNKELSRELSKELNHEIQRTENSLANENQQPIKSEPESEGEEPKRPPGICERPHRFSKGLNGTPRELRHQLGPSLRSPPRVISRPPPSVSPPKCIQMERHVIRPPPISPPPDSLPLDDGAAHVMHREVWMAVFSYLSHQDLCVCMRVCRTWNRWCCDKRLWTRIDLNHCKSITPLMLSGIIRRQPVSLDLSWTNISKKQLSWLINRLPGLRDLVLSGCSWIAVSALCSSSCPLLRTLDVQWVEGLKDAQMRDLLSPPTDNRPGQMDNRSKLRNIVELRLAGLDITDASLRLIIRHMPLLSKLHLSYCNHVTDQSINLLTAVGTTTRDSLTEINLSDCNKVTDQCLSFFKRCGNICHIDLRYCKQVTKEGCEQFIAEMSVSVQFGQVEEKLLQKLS
Put plainly: co-IP; MG-63 cell lysates, exogenous tagged proteins, immunoprecipitated with anti-HA antibody, antibodies against Myc and Flag to detect Tip60.

In a further experiment the target is T2, GST-KDM2B (UniProt Q8NHM5).
T2 sequence: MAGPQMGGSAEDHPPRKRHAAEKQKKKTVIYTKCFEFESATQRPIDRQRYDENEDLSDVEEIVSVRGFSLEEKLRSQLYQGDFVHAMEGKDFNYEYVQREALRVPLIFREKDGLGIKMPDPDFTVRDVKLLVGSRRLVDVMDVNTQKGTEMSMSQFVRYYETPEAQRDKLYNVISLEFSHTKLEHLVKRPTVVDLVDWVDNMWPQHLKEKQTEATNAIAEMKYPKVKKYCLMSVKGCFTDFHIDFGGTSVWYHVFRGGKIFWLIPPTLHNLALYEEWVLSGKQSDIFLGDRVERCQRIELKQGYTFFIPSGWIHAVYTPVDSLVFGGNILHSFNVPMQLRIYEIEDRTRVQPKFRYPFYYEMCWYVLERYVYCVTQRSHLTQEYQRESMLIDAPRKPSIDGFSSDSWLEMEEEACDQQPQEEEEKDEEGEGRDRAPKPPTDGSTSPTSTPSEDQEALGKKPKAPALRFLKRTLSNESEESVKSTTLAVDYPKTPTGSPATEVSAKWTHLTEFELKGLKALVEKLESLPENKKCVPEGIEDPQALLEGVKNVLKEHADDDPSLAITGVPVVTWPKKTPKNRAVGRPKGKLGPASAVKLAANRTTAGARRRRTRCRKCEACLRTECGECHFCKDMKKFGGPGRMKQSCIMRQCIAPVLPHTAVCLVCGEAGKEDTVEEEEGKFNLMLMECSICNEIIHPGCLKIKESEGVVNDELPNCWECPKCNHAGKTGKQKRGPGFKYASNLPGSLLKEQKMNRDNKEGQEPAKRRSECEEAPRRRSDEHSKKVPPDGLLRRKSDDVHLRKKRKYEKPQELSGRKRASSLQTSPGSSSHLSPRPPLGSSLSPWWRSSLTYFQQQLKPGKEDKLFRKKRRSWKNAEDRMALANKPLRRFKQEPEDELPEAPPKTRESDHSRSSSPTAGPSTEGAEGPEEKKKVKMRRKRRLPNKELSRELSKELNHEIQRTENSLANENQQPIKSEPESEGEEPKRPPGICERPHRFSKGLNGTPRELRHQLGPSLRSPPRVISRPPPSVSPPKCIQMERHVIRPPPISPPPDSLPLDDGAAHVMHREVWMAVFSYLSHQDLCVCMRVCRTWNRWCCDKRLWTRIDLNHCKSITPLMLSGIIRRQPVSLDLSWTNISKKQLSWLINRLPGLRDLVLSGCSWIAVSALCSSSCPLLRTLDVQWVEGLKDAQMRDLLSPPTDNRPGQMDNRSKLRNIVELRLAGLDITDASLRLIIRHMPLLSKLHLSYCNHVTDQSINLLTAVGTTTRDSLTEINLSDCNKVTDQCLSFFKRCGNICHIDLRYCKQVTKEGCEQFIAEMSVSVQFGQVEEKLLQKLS
As to the kind of experiment: pull-down; GST pull-down of GST-KDM2B with human HA-tagged Tip60.

In experiment [2] the target is Tip60 (endogenous, HOS cells) (human (endogenous in HOS)) (UniProt Q92993). As to the kind of experiment: co-IP; HOS cell lysates, immunoprecipitated with anti-Tip60 antibody, blotted for KDM2B and Tip60; endogenous proteins.

On to “Tip60, exogenous, tagged (MG-63 cells) (from UniProt Q92993 1-513)”, for which, in experiment [1], the binding result is listed as “binds”. For “human HA-tagged Tip60 (from UniProt Q92993 1-513)”, the binding entry with GST-KDM2B was “binds”.

B1: KDM2B (endogenous, HOS cells) (protein, UniProt Q8NHM5 1-1336)
chain: MAGPQMGGSAEDHPPRKRHAAEKQKKKTVIYTKCFEFESATQRPIDRQRYDENEDLSDVEEIVSVRGFSLEEKLRSQLYQGDFVHAMEGKDFNYEYVQREALRVPLIFREKDGLGIKMPDPDFTVRDVKLLVGSRRLVDVMDVNTQKGTEMSMSQFVRYYETPEAQRDKLYNVISLEFSHTKLEHLVKRPTVVDLVDWVDNMWPQHLKEKQTEATNAIAEMKYPKVKKYCLMSVKGCFTDFHIDFGGTSVWYHVFRGGKIFWLIPPTLHNLALYEEWVLSGKQSDIFLGDRVERCQRIELKQGYTFFIPSGWIHAVYTPVDSLVFGGNILHSFNVPMQLRIYEIEDRTRVQPKFRYPFYYEMCWYVLERYVYCVTQRSHLTQEYQRESMLIDAPRKPSIDGFSSDSWLEMEEEACDQQPQEEEEKDEEGEGRDRAPKPPTDGSTSPTSTPSEDQEALGKKPKAPALRFLKRTLSNESEESVKSTTLAVDYPKTPTGSPATEVSAKWTHLTEFELKGLKALVEKLESLPENKKCVPEGIEDPQALLEGVKNVLKEHADDDPSLAITGVPVVTWPKKTPKNRAVGRPKGKLGPASAVKLAANRTTAGARRRRTRCRKCEACLRTECGECHFCKDMKKFGGPGRMKQSCIMRQCIAPVLPHTAVCLVCGEAGKEDTVEEEEGKFNLMLMECSICNEIIHPGCLKIKESEGVVNDELPNCWECPKCNHAGKTGKQKRGPGFKYASNLPGSLLKEQKMNRDNKEGQEPAKRRSECEEAPRRRSDEHSKKVPPDGLLRRKSDDVHLRKKRKYEKPQELSGRKRASSLQTSPGSSSHLSPRPPLGSSLSPWWRSSLTYFQQQLKPGKEDKLFRKKRRSWKNAEDRMALANKPLRRFKQEPEDELPEAPPKTRESDHSRSSSPTAGPSTEGAEGPEEKKKVKMRRKRRLPNKELSRELSKELNHEIQRTENSLANENQQPIKSEPESEGEEPKRPPGICERPHRFSKGLNGTPRELRHQLGPSLRSPPRVISRPPPSVSPPKCIQMERHVIRPPPISPPPDSLPLDDGAAHVMHREVWMAVFSYLSHQDLCVCMRVCRTWNRWCCDKRLWTRIDLNHCKSITPLMLSGIIRRQPVSLDLSWTNISKKQLSWLINRLPGLRDLVLSGCSWIAVSALCSSSCPLLRTLDVQWVEGLKDAQMRDLLSPPTDNRPGQMDNRSKLRNIVELRLAGLDITDASLRLIIRHMPLLSKLHLSYCNHVTDQSINLLTAVGTTTRDSLTEINLSDCNKVTDQCLSFFKRCGNICHIDLRYCKQVTKEGCEQFIAEMSVSVQFGQVEEKLLQKLS
B1: the binding entry in experiment [2] is “binds”.
